According to article PMC11304257:
Numbering of substitutions follows the chain as printed. Results are given in words; binding and its absence hold for the method and conditions named. In cells and extracts the contact can be indirect. Some results given as binding are weak or reduced against the parent protein; the word gives no strength.

The chains behind the UniProt entries cited, without tags or fusion partners.
UniProt P78527: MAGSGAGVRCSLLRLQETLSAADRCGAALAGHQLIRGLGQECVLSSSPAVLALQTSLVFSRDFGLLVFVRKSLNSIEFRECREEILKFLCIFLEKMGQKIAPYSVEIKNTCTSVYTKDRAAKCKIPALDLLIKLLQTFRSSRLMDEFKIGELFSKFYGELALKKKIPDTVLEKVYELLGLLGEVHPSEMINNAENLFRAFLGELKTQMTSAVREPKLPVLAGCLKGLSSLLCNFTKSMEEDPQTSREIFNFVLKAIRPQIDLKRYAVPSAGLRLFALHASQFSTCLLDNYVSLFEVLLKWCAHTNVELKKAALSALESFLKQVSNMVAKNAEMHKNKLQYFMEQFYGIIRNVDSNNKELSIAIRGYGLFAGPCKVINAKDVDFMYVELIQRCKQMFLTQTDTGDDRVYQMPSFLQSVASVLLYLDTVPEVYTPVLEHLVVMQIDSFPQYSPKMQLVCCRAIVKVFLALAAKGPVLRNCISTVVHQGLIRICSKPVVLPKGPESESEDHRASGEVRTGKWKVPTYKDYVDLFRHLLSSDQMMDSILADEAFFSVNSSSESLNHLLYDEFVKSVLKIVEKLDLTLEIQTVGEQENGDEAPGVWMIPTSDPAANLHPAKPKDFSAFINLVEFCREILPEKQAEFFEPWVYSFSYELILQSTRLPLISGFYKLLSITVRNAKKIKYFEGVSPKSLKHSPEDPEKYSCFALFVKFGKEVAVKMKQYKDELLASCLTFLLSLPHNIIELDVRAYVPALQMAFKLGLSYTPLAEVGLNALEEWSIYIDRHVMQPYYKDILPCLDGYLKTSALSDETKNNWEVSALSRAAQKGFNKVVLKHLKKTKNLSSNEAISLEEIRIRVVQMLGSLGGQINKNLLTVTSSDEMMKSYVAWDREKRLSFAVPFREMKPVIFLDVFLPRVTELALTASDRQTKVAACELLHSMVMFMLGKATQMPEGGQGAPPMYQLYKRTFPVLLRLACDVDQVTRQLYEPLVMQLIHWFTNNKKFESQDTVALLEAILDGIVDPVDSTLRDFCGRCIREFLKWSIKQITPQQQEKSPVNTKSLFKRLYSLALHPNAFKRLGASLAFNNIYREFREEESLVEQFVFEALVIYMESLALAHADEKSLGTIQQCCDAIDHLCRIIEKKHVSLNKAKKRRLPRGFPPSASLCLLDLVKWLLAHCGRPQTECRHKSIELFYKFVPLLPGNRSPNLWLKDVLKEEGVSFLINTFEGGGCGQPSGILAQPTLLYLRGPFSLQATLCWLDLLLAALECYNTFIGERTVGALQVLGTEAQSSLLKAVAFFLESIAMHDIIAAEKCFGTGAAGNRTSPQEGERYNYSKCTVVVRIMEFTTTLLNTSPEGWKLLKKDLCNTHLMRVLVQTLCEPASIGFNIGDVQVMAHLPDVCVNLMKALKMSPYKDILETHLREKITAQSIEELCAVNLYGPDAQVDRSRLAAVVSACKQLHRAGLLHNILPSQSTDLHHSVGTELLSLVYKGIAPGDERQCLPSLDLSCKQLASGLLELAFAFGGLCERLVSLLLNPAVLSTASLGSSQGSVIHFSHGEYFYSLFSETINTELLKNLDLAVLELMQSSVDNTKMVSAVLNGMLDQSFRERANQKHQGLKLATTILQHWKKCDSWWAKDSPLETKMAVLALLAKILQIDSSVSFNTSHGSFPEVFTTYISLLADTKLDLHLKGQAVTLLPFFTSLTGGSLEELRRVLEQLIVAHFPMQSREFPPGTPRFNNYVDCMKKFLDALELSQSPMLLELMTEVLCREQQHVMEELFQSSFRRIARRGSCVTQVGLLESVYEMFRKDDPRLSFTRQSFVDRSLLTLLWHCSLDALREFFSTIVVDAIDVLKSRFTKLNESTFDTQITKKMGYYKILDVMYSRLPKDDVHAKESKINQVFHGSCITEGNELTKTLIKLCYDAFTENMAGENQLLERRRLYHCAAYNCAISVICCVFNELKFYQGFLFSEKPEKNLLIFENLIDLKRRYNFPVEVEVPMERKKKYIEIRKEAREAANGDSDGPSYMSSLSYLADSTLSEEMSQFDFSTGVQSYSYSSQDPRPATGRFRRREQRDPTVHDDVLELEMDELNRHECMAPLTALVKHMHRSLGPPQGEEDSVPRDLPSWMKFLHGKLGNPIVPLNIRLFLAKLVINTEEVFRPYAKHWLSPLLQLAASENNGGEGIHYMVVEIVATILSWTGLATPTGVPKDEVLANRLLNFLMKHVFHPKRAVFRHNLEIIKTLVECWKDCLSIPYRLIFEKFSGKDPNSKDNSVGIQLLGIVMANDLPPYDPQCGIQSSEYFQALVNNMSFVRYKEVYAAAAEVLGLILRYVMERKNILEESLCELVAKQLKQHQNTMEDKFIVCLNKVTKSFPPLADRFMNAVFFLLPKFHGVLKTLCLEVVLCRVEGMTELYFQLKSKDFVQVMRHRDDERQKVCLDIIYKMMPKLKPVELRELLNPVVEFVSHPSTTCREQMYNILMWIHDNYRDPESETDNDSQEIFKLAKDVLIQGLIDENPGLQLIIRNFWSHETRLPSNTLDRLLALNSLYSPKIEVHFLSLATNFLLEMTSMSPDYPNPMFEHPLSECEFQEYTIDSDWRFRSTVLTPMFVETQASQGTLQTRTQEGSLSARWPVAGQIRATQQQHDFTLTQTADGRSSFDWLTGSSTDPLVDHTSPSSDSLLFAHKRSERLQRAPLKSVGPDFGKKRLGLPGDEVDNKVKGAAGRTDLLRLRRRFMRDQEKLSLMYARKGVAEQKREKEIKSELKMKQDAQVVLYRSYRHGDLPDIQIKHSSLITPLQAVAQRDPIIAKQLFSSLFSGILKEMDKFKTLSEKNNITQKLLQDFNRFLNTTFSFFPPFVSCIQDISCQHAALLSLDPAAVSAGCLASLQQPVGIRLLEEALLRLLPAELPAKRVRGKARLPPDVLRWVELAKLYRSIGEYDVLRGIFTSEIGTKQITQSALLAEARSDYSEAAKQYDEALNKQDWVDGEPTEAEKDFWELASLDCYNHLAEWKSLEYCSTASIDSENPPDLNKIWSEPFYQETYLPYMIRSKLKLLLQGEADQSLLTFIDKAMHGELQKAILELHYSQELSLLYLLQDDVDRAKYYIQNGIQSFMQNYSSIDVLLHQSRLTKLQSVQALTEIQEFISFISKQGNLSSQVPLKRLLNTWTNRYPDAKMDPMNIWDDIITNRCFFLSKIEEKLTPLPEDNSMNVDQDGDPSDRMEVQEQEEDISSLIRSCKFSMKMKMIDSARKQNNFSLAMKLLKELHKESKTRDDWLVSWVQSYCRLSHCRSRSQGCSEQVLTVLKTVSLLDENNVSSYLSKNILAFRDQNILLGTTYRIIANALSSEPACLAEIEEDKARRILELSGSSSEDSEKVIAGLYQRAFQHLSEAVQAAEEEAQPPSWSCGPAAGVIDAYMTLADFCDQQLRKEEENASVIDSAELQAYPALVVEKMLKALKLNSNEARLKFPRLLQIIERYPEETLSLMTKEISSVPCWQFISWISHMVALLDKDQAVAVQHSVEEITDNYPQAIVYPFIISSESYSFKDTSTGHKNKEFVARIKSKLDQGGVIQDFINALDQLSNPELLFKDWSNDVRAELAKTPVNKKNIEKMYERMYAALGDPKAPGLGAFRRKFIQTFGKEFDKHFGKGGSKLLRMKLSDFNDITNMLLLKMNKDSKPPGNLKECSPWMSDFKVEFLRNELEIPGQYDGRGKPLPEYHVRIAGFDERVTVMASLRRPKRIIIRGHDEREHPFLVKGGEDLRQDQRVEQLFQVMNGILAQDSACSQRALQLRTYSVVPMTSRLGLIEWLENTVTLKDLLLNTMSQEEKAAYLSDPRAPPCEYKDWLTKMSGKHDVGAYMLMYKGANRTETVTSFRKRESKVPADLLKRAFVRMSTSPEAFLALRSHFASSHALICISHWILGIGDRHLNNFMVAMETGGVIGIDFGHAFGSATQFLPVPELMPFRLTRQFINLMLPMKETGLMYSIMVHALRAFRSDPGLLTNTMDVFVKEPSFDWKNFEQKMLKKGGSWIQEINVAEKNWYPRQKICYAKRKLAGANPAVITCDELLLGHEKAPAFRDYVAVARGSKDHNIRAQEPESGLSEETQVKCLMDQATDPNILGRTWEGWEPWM

Legend:
[1] = molecular target: T1, TRIM24 S523A mutant (human) (UniProt O15164); assay: co-IP; lysates of NHA/HRas^V12 cells expressing TRIM24 WT, deletion or point mutants; IP lysis buffer (20 mM Tris-HCl pH 7.5, 150 mM NaCl, 1 mM EDTA, 1% Triton X-100), 4 °C, four washes, Western blot; endogenous DNA-PK complex; some panels after NU7441 (4 µM, 24 h), Dabrafenib (40 µM, 24 h), U3 snoRNA knock-down or PHAX knock-down
T1 sequence: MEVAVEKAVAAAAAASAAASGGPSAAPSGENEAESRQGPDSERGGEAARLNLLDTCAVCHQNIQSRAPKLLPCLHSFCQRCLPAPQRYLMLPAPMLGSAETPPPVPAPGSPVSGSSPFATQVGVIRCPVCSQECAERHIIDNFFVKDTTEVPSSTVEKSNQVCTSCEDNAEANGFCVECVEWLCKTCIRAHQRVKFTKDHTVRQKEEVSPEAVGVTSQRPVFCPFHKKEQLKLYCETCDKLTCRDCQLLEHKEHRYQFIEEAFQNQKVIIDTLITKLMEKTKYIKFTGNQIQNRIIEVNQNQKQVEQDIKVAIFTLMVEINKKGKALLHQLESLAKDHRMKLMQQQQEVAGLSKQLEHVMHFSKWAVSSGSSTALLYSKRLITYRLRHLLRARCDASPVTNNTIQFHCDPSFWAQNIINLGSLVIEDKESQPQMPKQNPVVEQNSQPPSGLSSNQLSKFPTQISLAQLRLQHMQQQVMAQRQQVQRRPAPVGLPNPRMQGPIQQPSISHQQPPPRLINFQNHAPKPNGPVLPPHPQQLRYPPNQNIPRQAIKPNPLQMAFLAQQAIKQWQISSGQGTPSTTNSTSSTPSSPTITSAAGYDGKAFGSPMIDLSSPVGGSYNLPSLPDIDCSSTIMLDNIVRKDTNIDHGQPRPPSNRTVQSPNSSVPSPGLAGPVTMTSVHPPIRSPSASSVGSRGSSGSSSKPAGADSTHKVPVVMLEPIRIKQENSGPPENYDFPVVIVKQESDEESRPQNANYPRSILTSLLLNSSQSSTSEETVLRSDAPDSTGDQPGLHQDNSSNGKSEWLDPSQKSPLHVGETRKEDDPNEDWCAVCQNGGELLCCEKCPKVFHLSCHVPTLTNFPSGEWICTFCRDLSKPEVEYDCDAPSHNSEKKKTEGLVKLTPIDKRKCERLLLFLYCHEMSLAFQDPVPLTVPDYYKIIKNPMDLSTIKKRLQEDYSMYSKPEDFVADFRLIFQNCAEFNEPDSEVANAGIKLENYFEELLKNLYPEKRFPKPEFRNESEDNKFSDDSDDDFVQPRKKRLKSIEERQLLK

[2] = molecular target: T2, TRIM24 S767/768D phosphomimetic mutant (human) (UniProt O15164); assay: as above
T2 sequence: T1 sequence with A523S, S767D, S768D

binding [1]: binds | binding [2]: binds
Substance: DNA-dependent protein kinase catalytic subunit (DNA-PKcs) (from UniProt P78527 1-4128) (enzyme)
